Results from publication PMC11354247.
These are yes or no findings as the source states them, for the method shown. Binding seen in cells or lysates may run through a third protein. Some binding calls cover weakened binding; strength is not graded here. Each block holds one molecule with its values, some of them ahead of it.

Protein sequences, listed by entry. Tags and fused reporters are not part of them. Lines headed by an entry give the natural chain unless they say otherwise; changes in a name come on top.
UniProt P61169: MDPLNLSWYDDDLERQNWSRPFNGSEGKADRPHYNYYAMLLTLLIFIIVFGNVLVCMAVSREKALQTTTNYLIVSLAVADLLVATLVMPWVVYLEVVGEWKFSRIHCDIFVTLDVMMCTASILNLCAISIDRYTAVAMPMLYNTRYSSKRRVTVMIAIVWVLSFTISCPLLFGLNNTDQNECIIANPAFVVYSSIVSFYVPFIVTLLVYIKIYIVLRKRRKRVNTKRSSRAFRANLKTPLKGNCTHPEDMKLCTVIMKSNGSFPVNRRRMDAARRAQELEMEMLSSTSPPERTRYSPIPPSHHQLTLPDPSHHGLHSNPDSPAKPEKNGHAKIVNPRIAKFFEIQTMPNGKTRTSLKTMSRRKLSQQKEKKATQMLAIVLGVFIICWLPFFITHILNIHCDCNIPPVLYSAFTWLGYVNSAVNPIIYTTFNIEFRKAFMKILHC
UniProt P70536: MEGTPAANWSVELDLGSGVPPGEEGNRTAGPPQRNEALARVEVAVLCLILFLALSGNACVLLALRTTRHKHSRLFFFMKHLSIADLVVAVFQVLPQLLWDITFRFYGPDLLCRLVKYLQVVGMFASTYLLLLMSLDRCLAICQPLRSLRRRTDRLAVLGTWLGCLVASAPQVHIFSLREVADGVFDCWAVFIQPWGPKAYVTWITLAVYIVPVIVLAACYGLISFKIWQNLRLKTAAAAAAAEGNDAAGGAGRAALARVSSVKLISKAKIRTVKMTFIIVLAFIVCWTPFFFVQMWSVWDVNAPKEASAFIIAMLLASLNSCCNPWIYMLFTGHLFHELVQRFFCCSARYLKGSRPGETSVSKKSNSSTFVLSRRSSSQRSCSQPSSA
UniProt P30543: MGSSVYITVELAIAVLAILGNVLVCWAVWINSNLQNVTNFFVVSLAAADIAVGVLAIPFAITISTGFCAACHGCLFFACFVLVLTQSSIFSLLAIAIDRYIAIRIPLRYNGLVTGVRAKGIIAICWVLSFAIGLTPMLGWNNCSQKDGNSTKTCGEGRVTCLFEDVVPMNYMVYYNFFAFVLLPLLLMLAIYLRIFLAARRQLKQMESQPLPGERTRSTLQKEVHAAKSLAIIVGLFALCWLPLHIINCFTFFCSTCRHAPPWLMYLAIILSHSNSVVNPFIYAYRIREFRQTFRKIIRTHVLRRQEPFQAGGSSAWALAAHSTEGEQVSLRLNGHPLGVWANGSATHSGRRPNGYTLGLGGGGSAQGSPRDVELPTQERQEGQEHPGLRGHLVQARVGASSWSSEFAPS

What was measured:
[1] = target: dopamine D2 receptor (rat (endogenous in striatal gliosomes and hemibrain slices)) (UniProt P61169); test: co-IP; Triton X-100-soluble membrane proteins (300 µg) of freshly isolated rat striatal gliosomes; precleared, incubated overnight at 4 °C with 1 µg of anti-OTR, anti-A2A or anti-D2 antibody, protein G sepharose; 50 mM sodium borate, 0.1 mM EDTA, pH 7.5, 0.2% Triton-X100; Western blot
[2] = target: oxytocin receptor (rat (endogenous in striatal gliosomes and hemibrain slices)) (UniProt P70536); test: as above
[3] = target: adenosine A2A receptor (rat (endogenous in striatal gliosomes)) (UniProt P30543); test: as above
[4] = target: oxytocin receptor (rat (endogenous in striatal gliosomes and hemibrain slices)) (UniProt P70536); test: proximity ligation; in situ PLA (Duolink) on rat hemibrain slices with anti-D2 PLUS and anti-OTR MINUS conjugated primary antibodies, overnight at 4 °C; confocal microscopy; GFAP- and ezrin-positive striatal astrocytes

Molecule: adenosine A2A receptor (from UniProt P30543 1-410)
binding [1]: binds
binding [2]: binds

Molecule: dopamine D2 receptor (from UniProt P61169 1-444)
binding [3]: binds
binding [2]: binds
binding [4]: binds

The remaining lines, values ahead:

binding [3]: binds
binding [1]: binds
Molecule: oxytocin receptor (from UniProt P70536 1-388)

binding [3]: binds
binding [1]: binds
binding [2]: binds
B1: flotillin-1 (protein, UniProt Q9Z1E1 1-428)
chain: MFFTCGPNEAMVVSGFCRSPPVMVAGGRVFVLPCIQQIQRISLNTLTLNVKSEKVYTRHGVPISVTGIAQVKIQGQNKEMLAAACQMFLGKTEAEIAHIALETLEGHQRAIMAHMTVEEIYKDRQKFSEQVFKVASSDLVNMGISVVSYTLKDIHDDQDYLHSLGKARTAQVQKDARIGEAEAKRDAGIREAKAKQEKVSAQCLSEIEMAKAQRDYELKKATYDIEVNTRRAQADLAYQLQVAKTKQQIEEQRVQVQVVERAQQVAVQEQEIARREKELEARVRKPAEAERYRLERLAEAEKAQLIMQAEAEAESVRMRGEAEAFAVGARARAEAEQMAKKAEAFQMYQEAAQLDMLLEKLPQVAEEISGPLTSANKITLVSSGSGTMGAAKVTGEVLDILSRLPESVERLTGVSISQVNHNKPLRTA
